Test results reported in publication doi:10.1101/2025.11.23.689998.
These are yes or no findings as the source states them, for the method shown. Binding seen in cells or lysates may run through a third protein. A yes stands for co-enrichment or nearness to the bait. Other partners may have been found.

By UniProt entry, the sequences of proteins in these tests, tags left out.
UniProt P14713: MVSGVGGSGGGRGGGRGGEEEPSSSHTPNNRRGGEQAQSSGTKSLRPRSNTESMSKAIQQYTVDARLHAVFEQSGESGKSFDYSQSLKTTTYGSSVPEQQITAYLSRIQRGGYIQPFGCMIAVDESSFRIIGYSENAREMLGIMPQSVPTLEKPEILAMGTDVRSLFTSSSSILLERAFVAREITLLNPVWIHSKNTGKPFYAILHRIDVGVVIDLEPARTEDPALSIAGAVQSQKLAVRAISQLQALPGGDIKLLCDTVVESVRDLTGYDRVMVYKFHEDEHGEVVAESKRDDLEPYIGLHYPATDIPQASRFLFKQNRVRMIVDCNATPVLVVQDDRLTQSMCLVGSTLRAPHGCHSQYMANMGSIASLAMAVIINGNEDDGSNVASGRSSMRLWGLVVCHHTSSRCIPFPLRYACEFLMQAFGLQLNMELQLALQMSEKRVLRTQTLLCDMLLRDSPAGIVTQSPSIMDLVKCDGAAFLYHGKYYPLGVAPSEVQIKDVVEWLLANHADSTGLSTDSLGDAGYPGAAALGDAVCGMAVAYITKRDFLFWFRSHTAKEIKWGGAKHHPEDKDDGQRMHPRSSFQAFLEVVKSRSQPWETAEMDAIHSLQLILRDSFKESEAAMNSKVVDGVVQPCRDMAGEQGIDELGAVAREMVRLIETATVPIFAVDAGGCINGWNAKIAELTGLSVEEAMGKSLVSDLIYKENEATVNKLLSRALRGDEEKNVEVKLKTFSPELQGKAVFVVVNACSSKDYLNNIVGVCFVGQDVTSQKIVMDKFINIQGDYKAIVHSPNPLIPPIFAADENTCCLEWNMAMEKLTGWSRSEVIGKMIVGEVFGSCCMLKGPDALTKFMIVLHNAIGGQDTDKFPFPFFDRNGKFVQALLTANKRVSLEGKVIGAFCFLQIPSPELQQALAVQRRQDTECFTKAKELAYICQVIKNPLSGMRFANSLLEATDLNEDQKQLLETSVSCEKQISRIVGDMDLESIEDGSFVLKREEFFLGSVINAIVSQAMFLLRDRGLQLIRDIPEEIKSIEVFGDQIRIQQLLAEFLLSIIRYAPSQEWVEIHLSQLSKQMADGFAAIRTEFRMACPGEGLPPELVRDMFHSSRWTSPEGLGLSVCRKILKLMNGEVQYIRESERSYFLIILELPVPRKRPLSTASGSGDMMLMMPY

B1: LRR-like receptor At4g13340 (receptor, UniProt Q9T0K5 21-760)
chain: LSISSDGGVLSDNEVRHIQRRQLLEFAERSVKITVDPSLNFENPRLRNAYIALQAWKQAILSDPNNFTSNWIGSNVCNYTGVFCSPALDNRKIRTVAGIDLNHADIAGYLPEELGLLSDLALFHVNSNRFCGTVPHRFNRLKLLFELDLSNNRFAGKFPTVVLQLPSLKFLDLRFNEFEGTVPKELFSKDLDAIFINHNRFRFELPENFGDSPVSVIVLANNRFHGCVPSSLVEMKNLNEIIFMNNGLNSCLPSDIGRLKNVTVFDVSFNELVGPLPESVGEMVSVEQLNVAHNMLSGKIPASICQLPKLENFTYSYNFFTGEAPVCLRLPEFDDRRNCLPGRPAQRSPGQCKAFLSRPPVNCGSFSCGRSVSPRPPVVTPLPPPSLPSPPPPAPIFSTPPTLTSPPPPSPPPPVYSPPPPPPPPPPVYSPPPPPPPPPPPPVYSPPPPPPPPPPPPPVYSPPPPSPPPPPPPVYSPPPPPPPPPPPPVYSPPPPPVYSSPPPPPSPAPTPVYCTRPPPPPPHSPPPPQFSPPPPEPYYYSSPPPPHSSPPPHSPPPPHSPPPPIYPYLSPPPPPTPVSSPPPTPVYSPPPPPPCIEPPPPPPCIEYSPPPPPPVVHYSSPPPPPVYYSSPPPPPVYYSSPPPPPPVHYSSPPPPEVHYHSPPPSPVHYSSPPPPPSAPCEESPPPAPVVHHSPPPPMVHHSPPPPVIHQSPPPPSPEYEGPLPPVIGVSYASPPPPPFY
B2: LRR-like receptor At4g18670 (receptor, UniProt Q9SN46 32-857)
chain: LTFNGDLSDNEVRLITQRQLLYFRDEFGDRGENVDVDPSLVFENPRLRNAYIALQAWKQAILSDPNNFTTNWIGSDVCSYTGVYCAPALDNRRIRTVAGIDLNHADIAGYLPQELGLLTDLALFHINSNRFCGTVPHRFNRLKLLFELDLSNNRFAGIFPTVVLQLPSLKFLDLRFNEFEGPVPRELFSKDLDAIFINHNRFRFELPDNLGDSPVSVIVVANNHFHGCIPTSLGDMRNLEEIIFMENGFNSCLPSQIGRLKNVTVFDFSFNELVGSLPASIGGMVSMEQLNVAHNRFSGKIPATICQLPRLENFTFSYNFFTGEPPVCLGLPGFDDRRNCLPARPAQRSPGQCAAFSSLPPVDCGSFGCGRSTRPPVVVPSPPTTPSPGGSPPSPSISPSPPITVPSPPTTPSPGGSPPSPSIVPSPPSTTPSPGSPPTSPTTPTPGGSPPSSPTTPTPGGSPPSSPTTPTPGGSPPSSPTTPSPGGSPPSPSISPSPPITVPSPPSTPTSPGSPPSPSSPTPSSPIPSPPTPSTPPTPISPGQNSPPIIPSPPFTGPSPPSSPSPPLPPVIPSPPIVGPTPSSPPPSTPTPVYSPPPPSTGYPPPPPFTGYSPPSPPPPPPPTFSPSPSIPPPPPQTYSPFPPPPPPPPQTYYPPQPSPSQPPQSPIYGTPPPSPIPYLPSPPQFASPPPPAPYYYSSPQPPPPPHYSLPPPTPTYHYISPPPPPTPIHSPPPQSHPPCIEYSPPPPPTVHYNPPPPPSPAHYSPPPSPPVYYYNSPPPPPAVHYSPPPPPVIHHSQPPPPPIYEGPLPPIPGISYASPPPPPFY
B3: LRR-like receptor At4g19510 (receptor, UniProt F4JT80 1-1207)
chain: MAFASSSSSIVLSKCEFDVFVSFRGADTRHDFTSHLVKYLRGKGIDVFSDAKLRGGEYISLLFDRIEQSKMSIVVFSEDYANSWWCLEEVGKIMQRRKEFNHGVLPIFYKVSKSDVSNQTGSFEAVFQSPTKIFNGDEQKIEELKVALKTASNIRGFVYPENSSEPDFLDEIVKNTFRMLNELSPCVIPDDLPGIESRSKELEKLLMFDNDECVRVVGVLGMTGIGKTTVADIVYKQNFQRFDGYEFLEDIEDNSKRYGLPYLYQKLLHKLLDGENVDVRAQGRPENFLRNKKLFIVLDNVTEEKQIEYLIGKKNVYRQGSRIVIITRDKKLLQKNADATYVVPRLNDREAMELFCLQVFGNHYPTEEFVDLSNDFVCYAKGLPLALKLLGKGLLTHDINYWKKKLEFLQVNPDKELQKELKSSYKALDDDQKSVFLDIACFFRSEKADFVSSILKSDDIDAKDVMRELEEKCLVTISYDRIEMHDLLHAMGKEIGKEKSIRKAGERRRLWNHKDIRDILEHNTGTECVRGIFLNMSEVRRIKLFPAAFTMLSKLKFLKFHSSHCSQWCDNDHIFQCSKVPDHFPDELVYLHWQGYPYDCLPSDFDPKELVDLSLRYSHIKQLWEDEKNTESLRWVDLGQSKDLLNLSGLSRAKNLERLDLEGCTSLDLLGSVKQMNELIYLNLRDCTSLESLPKGFKIKSLKTLILSGCLKLKDFHIISESIESLHLEGTAIERVVEHIESLHSLILLNLKNCEKLKYLPNDLYKLKSLQELVLSGCSALESLPPIKEKMECLEILLMDGTSIKQTPEMSCLSNLKICSFCRPVIDDSTGLVVLPFSGNSFLSDLYLTNCNIDKLPDKFSSLRSLRCLCLSRNNIETLPESIEKLYSLLLLDLKHCCRLKSLPLLPSNLQYLDAHGCGSLENVSKPLTIPLVTERMHTTFIFTDCFKLNQAEKEDIVAQAQLKSQLLARTSRHHNHKGLLLDPLVAVCFPGHDIPSWFSHQKMGSLIETDLLPHWCNSKFIGASLCVVVTFKDHEGHHANRLSVRCKSKFKSQNGQFISFSFCLGGWNESCGSSCHEPRKLGSDHVFISYNNCNVPVFKWSEETNEGNRCHPTSASFEFYLTDETERKLECCEILRCGMNFLYARDENDRKFQGIRVTDTVERTSSEALVTIRGQSHSRIEERRYGRIRDEIMDMTGSSMIGGPES
B4: LRR-like receptor At4g19530 (receptor, UniProt O49471 1-1189)
chain: MATSSSVVSSVPQQHQVFLNFRGDELRNNFVSHLDKALRGKQINVFIDEAVEKGENLDNLFKEIEKSRIALAIISQKYTESKWCLNELVKMKELEGKLVTIPIFYNVEPATVRYQKEAFGAALTKTQENDSDGQMKKWKEALTYVSLLVGFPFNSKSKEKETTLIDKIVDAVLQKLSKISSEESTSGSVDQGRGEEVEEAKADKISGLNQRLKELEEKVAITGDKRDETRIVEVVGMPGIGKSTLLKAFYETWKTRFLSSALLQNISELVKAMGLGRLTGMLLKELLPDENIDEETYEPYKEKLLKNTVFIVLDGISDETHIQKLLKDHRKWAKKGSKIVIARRAVTRDLLHEDSMVRYTYFVPLLSHRDGLNHFCHYAFRHFAAHQNNKEAFMKESKEFVRYARGHPLILKLLGEELREKSLSYWEEKLKSLPKSLSQNIRDRVLQVTYDELSQVQKDAFLDIACFRSHDLVYVKSLLDSSGPAFSKATVTIDALKDMFMIYISDSRVEMHDLLYTFAMELGPEARDDDGRGRHRIWHHHNQDNKGRLNRLLKRPGGSTSVRSFFLDMYVMKTDVTLGTDYLKNMRNLRYLKFYSSHCPQECTPKENIHIPGELELPLEEVRCLHWLNFPKDELPQDFIPKNLVDLKLPYSKIRQIWREEKDAPKLRWVDLNHSSKLENLSGLSQALNLERLNLEGCTALKTLLLGPENMASLVFLNLKGCTGLESLPKINLRSLKTLILSNCSNLEEFWVISETLYTLYLDGTAIKTLPQDMVKLTSLVKLYMKDCEMLVKLPEEFDKLKVLQELVCSGCKRLSSLPDVMKNMQCLQILLLDGTAITKIPHISSLERLCLSRNEKISCLSNDIRLLSQLKWLDLKYCTKLVSIPELPTNLQCLDANGCESLTTVANPLATHLPTEQIHSTFIFTNCDKLDRTAKEVITTYAQRKCQMLSDALKRWNEGFVPEALFSTCFPGCEVPSWFCHEAVGSVLKLNLLPHWNENRFVGIALCAVVGSLPNCQEQTNSCSVTCTFNIASKDSKKGDPYKISFDRLVGRWNKHGNKLDKKGNKLKKTESDHVFICYTRCSNSIKCLQDQHSGTCTPTEAFLEFGVTDKESRLEVLKCGLRLVYASDEPQKTNSDMDLSLSSSDSTPTRNGSSNTTTSSGSVSTNTIREEDSNILHEAQSQNGRGL

The binders below were run against phyB-miniTurbo (phyB CDS - miniTurbo-sCFP3A-3FLAG) (Arabidopsis thaliana) (UniProt P14713) (assay: proximity labelling).

Binder	binding
B1	binds
B2	binds
B3	binds
B4	binds
